Laboratory results reported in PubChem BioAssay AID590 (National Center for Advancing Translational Sciences (NCATS), 2007).
Out of some 59,000 compounds screened, about 6,500 (11%) were called active. The shares of active, inactive and inconclusive entries below differ from those in the screen. No stated cut-off is given here; in the data, active means max dye-equivalent concentration above about 10 nM; inconclusive means mostly about 1.1 nM to 9.6 nM; inactive means weaker than that.

assay: qHTS Assay for Spectroscopic Profiling in A350 Spectral Region; conditions: Compound autofluorescence, 340/450 nm, Alexa 350 dye-equivalents; hits give high values

SMILES | max dye-equivalent concentration
CCCC(=O)Nc1nnc(CC(=O)OCC)s1 | inactive
CN(C)C(CNC(=O)CCCc1c[nH]c2ccccc12)c1ccco1 (centres undefined) | inconclusive: 2.9 nM
CC1Cn2c(nnc2-c2cccs2)S1 (centres undefined) | inconclusive: 9.2 nM
N#Cc1c(-c2ccccc2)no[n+]1[O-] | inconclusive: 3.8 nM
CCn1c(SCC(=O)NC2CCCCC2)nnc1-c1cccs1 | inconclusive: 1.3 nM
CCOC(=O)c1[nH]c2ccc(OC)cc2c1C | inconclusive: 8.3 nM
CCn1c(=O)c2[nH]c(-c3ccccc3)nc2n(CC)c1=O | inactive
CCn1nc(NC(=O)c2cccnc2)c2cc3ccccc3nc21 | active: 28 nM
Fc1cc2nc(-c3ccncc3)[nH]c2cc1F | inactive
Cc1cc2nc(-c3ccc(SCC(=O)N4CCN(C(=O)c5ccco5)CC4)nc3)[nH]c2cc1C | active: 30 nM
CSCC[C@H](NC(=O)Nc1ccc(C)cc1)C(=O)O | active: 54 nM
CCCCC(=O)Nc1cccc(NC(=O)c2ccc3c(c2)OCO3)c1 | inconclusive: 2.2 nM
COc1ccc(-n2c(=O)c(-c3cc(F)cc(F)c3)nc3cnc(N4CCOCC4)nc32)cc1 | inconclusive: 7.9 nM
CC(C)C(c1nnnn1Cc1ccc(F)cc1)N1CCN(Cc2ccc3c(c2)OCO3)CC1 (centres undefined) | inconclusive: 1.5 nM
CC1(CC(=O)O)O[C@H]2CCCCC[C@H]2O1 (some centres undefined) (tested in a mixture with another compound) | inactive
COc1ccccc1OCc1ccc(C(=O)NC(C)(C)C)o1 | inconclusive: 4.8 nM
Cc1cccc(CNc2ncncc2-c2ccccc2CN(C)C)c1 | inconclusive: 1.5 nM
COCc1nnc(NS(=O)(=O)c2ccc(NC(C)=O)cc2)s1 | inconclusive: 3.7 nM
CCCC(=O)Nc1ccc(C(=O)NCC(=O)OCC)cc1 | active: 190 nM
c1csc(-c2nnc(-c3ccc(N4CCOCC4)cc3)o2)c1 | active: 130 nM
CCOc1ccc(S(=O)(=O)NCCC(=O)OCN2C(=O)c3ccccc3C2=O)cc1 | inconclusive: 2 nM
C=C(CC(=O)O)C(=O)O (tested in a mixture with another compound) | inactive
COc1ccccc1-c1ccc(=O)n(CC(=O)NCc2ccc3c(c2)OCO3)n1 | inactive

Structures from the list above that have nitrogen in an aromatic ring, in the order listed:
SMILES | max dye-equivalent concentration
CCCC(=O)Nc1nnc(CC(=O)OCC)s1 | inactive
CN(C)C(CNC(=O)CCCc1c[nH]c2ccccc12)c1ccco1 (centres undefined) | inconclusive: 2.9 nM
CC1Cn2c(nnc2-c2cccs2)S1 (centres undefined) | inconclusive: 9.2 nM
N#Cc1c(-c2ccccc2)no[n+]1[O-] | inconclusive: 3.8 nM
CCn1c(SCC(=O)NC2CCCCC2)nnc1-c1cccs1 | inconclusive: 1.3 nM
CCOC(=O)c1[nH]c2ccc(OC)cc2c1C | inconclusive: 8.3 nM
CCn1c(=O)c2[nH]c(-c3ccccc3)nc2n(CC)c1=O | inactive
CCn1nc(NC(=O)c2cccnc2)c2cc3ccccc3nc21 | active: 28 nM
Fc1cc2nc(-c3ccncc3)[nH]c2cc1F | inactive
Cc1cc2nc(-c3ccc(SCC(=O)N4CCN(C(=O)c5ccco5)CC4)nc3)[nH]c2cc1C | active: 30 nM
COc1ccc(-n2c(=O)c(-c3cc(F)cc(F)c3)nc3cnc(N4CCOCC4)nc32)cc1 | inconclusive: 7.9 nM
CC(C)C(c1nnnn1Cc1ccc(F)cc1)N1CCN(Cc2ccc3c(c2)OCO3)CC1 (centres undefined) | inconclusive: 1.5 nM
Cc1cccc(CNc2ncncc2-c2ccccc2CN(C)C)c1 | inconclusive: 1.5 nM
COCc1nnc(NS(=O)(=O)c2ccc(NC(C)=O)cc2)s1 | inconclusive: 3.7 nM
c1csc(-c2nnc(-c3ccc(N4CCOCC4)cc3)o2)c1 | active: 130 nM
COc1ccccc1-c1ccc(=O)n(CC(=O)NCc2ccc3c(c2)OCO3)n1 | inactive

Quoted from the listing (2 entries):
SMILES | max dye-equivalent concentration
CC1Cn2c(nnc2-c2cccs2)S1 (centres undefined) | inconclusive: 9.2 nM
N#Cc1c(-c2ccccc2)no[n+]1[O-] | inconclusive: 3.8 nM

More compounds follow:

SMILES | max dye-equivalent concentration
Cc1cc(C)c2cc(CN(Cc3cccs3)Cc3nnnn3CC3CCCO3)c(=O)[nH]c2c1 (centres undefined) | inactive
CCOC(=O)c1cc(-c2ccc(N)cc2)sc1N | inconclusive: 2.8 nM
CCn1c(=O)cc(OCC(=O)Nc2ccc(Cl)cn2)c2ccccc21 | inactive
O=C(OCc1cc(Cl)ccc1OC(F)F)c1cc(S(=O)(=O)O)ccc1O | inconclusive: 4 nM
COc1cccc2cc(C(=O)N3CCN(C45CC6CC(CC(C6)C4)C5)CC3)c(=O)oc12 | inactive
C=CCn1c(COc2ccccc2C)nnc1SCC(=O)O | inactive
O=C(OCc1nc2ccccc2s1)c1cccc(S(=O)(=O)N2CCOCC2)c1 | inconclusive: 1.1 nM
COc1ccc(NC(=O)C(CC(C)C)NC(=O)c2ccccc2C)cn1 (centres undefined) | inconclusive: 3.5 nM
C1=C(c2ccc(-c3ccccc3)cc2)Nc2ncnn2C1c1ccco1 (centres undefined) | active: 70 nM
CC[N+](C)(C)c1cccc(O)c1 | inconclusive: 2.1 nM
COc1ccc(-c2nc(C#N)c(NCc3ccccc3Cl)o2)cc1 | inactive
CCn1c(C)c(CCC(=O)O)c(=O)n2nc(-c3ccccc3OC)cc12 | inconclusive: 2.2 nM
CC(=O)N1CCc2cc(S(=O)(=O)CCC(=O)Nc3cccc(F)c3)ccc21 | inconclusive: 1.4 nM
COc1ccc(-c2coc3ccc(O[C@@H]4O[C@@H](COC(C)=O)[C@@H](OC(C)=O)[C@@H](OC(C)=O)[C@H]4OC(C)=O)cc3c2=O)cc1 | inactive
CN(Cc1ccco1)c1ccnc(-c2ccccc2C(F)(F)F)n1 | active: 28 nM
NC(=O)CSc1nnc(-c2ccc(S(=O)(=O)N3CCOCC3)cc2)n1Cc1ccccc1 | inconclusive: 1.7 nM
Cc1ccc2c(c1)[nH]c1c(=O)n(CCCN3CCOCC3)cnc12 | inconclusive: 2 nM
c1nnn(C23CC4CC(CC(C4)C2)C3)n1 | inconclusive: 1.3 nM
O=C(Nc1ccc(S(=O)(=O)N2CCN(Cc3ccccc3)CC2)cc1)c1cnccn1 | inconclusive: 1.7 nM
C=CCn1c(SCC(=O)Nc2ccc(NC(=O)c3ccco3)c(OC)c2)nnc1-c1ccncc1 | inconclusive: 1.1 nM
O=C(NCCO)c1cc2ccccc2c(=O)s1 | inconclusive: 1.7 nM
CS(=O)(=O)c1ccc2nc(NC(=O)CCC(=O)c3cccs3)sc2c1 | inconclusive: 1.5 nM
CCNc1ncc2ncc(=O)n(Cc3cccc(OC)c3)c2n1 | active: 16 nM

SMILES | max dye-equivalent concentration
CC(=O)c1ncnn1CC(=O)c1ccc(Cl)cc1Cl | inconclusive: 1.6 nM
COc1ccc(CN(CCCN2CCOCC2)C(=O)Nc2cccc(Cl)c2)cc1OC | inconclusive: 1.2 nM
CCOCC(=O)Nc1c(C(=O)OCC)oc2ccccc12 | inconclusive: 9 nM
COc1ccc(NS(=O)(=O)c2ccc(O)c(C(=O)OCC(=O)N3CC(C)OC(C)C3)c2)cc1 (centres undefined) | inconclusive: 1.4 nM
Cc1ccc(F)cc1NC(=O)c1ccc2c(c1)OCO2 | inconclusive: 4.9 nM
COc1ccc(OC)c(NS(=O)(=O)c2ccc3c(c2)CCC(=O)N3)c1 | inactive
COc1ccccc1NS(=O)(=O)c1ccc(Cl)cc1 | inconclusive: 2.8 nM
COc1ccc(OC)c(C2C(C(=O)c3ccco3)=C(O)C(=O)N2CCCN2CCOCC2)c1 (centres undefined) | inactive
CCC(NS(=O)(=O)c1ccc(C)cc1)C(=O)Nc1ccc(NC(C)=O)cc1 (centres undefined) | inactive
CC(C)OC(=O)CSc1nnc(Cc2ccccc2)n1C | inconclusive: 2 nM
O=C(C1CCN(S(=O)(=O)c2cccc3nsnc23)CC1)N1CCc2ccccc21 | inconclusive: 1.1 nM
CCCOc1cccc(C2C(C(=O)c3ccco3)=C(O)C(=O)N2CCN(CC)CC)c1 (centres undefined) | inconclusive: 1.1 nM
Cc1cc(C)nc(SCc2nnc(SCC(=O)Nc3ccccc3C)n2Cc2ccco2)n1 | inactive
O=c1cc(N2CCc3ccccc32)[nH]c(=O)n1Cc1ccc(F)cc1 | inconclusive: 2.7 nM
COC(=O)c1ccc2c(=O)n(CCCCCC(=O)N3CCN(c4ccccc4)CC3)c(=O)[nH]c2c1 | inconclusive: 3.7 nM
COC(=O)CCN(C1CCCCC1)S(=O)(=O)c1ccc(S(=O)(=O)N2CCCCC2)cc1 | inconclusive: 1.3 nM
CCOC(=O)N1CCN(C(=O)Nc2ccc3nc(C)sc3c2)CC1 | active: 13 nM
COC(=O)Nc1nnc(CC(=O)Nc2ccccc2C)s1 | inconclusive: 1.3 nM
O=c1c2cnn(-c3ccccc3)c2ncn1Cc1ccccc1 | inactive
Cc1ccc(CNC(=O)c2coc(=O)c3ccccc23)o1 | inconclusive: 2.3 nM
CCOC(=O)c1ccc2nc(NC(NC(C)=O)(C(=O)OC)C(F)(F)F)sc2c1 (centres undefined) | inconclusive: 2.7 nM
Cc1cc(C)c2[nH]c(=O)c(C(c3nnnn3C(C)(C)C)N3CCN(C(=O)c4ccco4)CC3)cc2c1 (centres undefined) | active: 31 nM
Cc1cc(C)n2cc(CSc3nc4cc(Cl)ccc4o3)nc2n1 | inconclusive: 1.5 nM

SMILES | max dye-equivalent concentration
Cc1cn[nH]c1 | inactive
C=C(C)CSc1nc2nc(C)cc(C)n2n1 | inactive
c1ccc(-c2ncnc3nc4n(c23)CCC4)cc1 | inactive
CCn1c2ccccc2c2cc(NC(=O)COC(=O)Cc3cn4ccsc4n3)ccc21 | inconclusive: 1.6 nM
Clc1ccc2c(N3CCCC3)ccnc2c1 | active: 76 nM
O=C(C1CCCCC1)N(Cc1nc2sc3c(c2c(=O)[nH]1)CCCC3)Cc1cccs1 | inconclusive: 4.1 nM
O=C(c1cnccn1)N1CCC[C@@]2(CCN(c3ccccc3)C2)C1 | inactive
O=C1c2ccccc2N2C(=O)c3ccccc3C2N1O (centres undefined) | inconclusive: 5.8 nM
Cc1nc(N2CCN(Cc3ccc4c(c3)OCO4)CC2)nc2c1C(=O)CC(c1ccco1)C2 (centres undefined) | inconclusive: 1.2 nM
COc1ccc(C)cc1NC(=O)c1cc2c(C)nc3ccccc3c2o1 | active: 160 nM
c1ccc(Nc2nc(-c3cccnc3)nc3ccccc23)cc1 | inconclusive: 3.8 nM
O=C(Nc1cc(C(=O)N2CCCC2)ccc1N1CCCC1)c1ccccc1F | inconclusive: 1.5 nM
Oc1ccc(C=Nc2cccc3ncccc23)c(O)c1 | active: 23 nM
CCOC(=O)C1CCCN(C(=O)C2CCN(S(=O)(=O)CC)CC2)C1 (centres undefined) | inconclusive: 1.6 nM
COc1nc2ccc(C)cc2cc1-c1noc(-c2cccnc2)n1 | active: 38 nM
CC1CCCC(NC(=O)C2CCN(S(=O)(=O)N3CCC4(CC3)OCCO4)CC2)C1C (centres undefined) | inactive
c1ccc2c(CN3CCN(Cc4c[nH]c5ccccc45)CC3)c[nH]c2c1 | inconclusive: 2.4 nM
CCNS(=O)(=O)c1ccc(NC(=O)Nc2cccc(OC)c2)cc1 | inactive
Cc1cc(C)nc(N(C#N)S(=O)(=O)c2ccccc2Cl)n1 | active: 18 nM
CC(=O)OCC(=O)[C@@]1(O)CC[C@H]2[C@@H]3CCC4=CC(=O)C=C[C@]4(C)[C@@]3(Cl)[C@@H](Cl)C[C@@]21C | inconclusive: 1.2 nM
